This assay deals with Lewis lung carcinoma i.m., BDF1 mice, T/C %. As to the kind of experiment: NCI In Vivo Anticancer Drug Screen. Data for tumor model Lewis Lung Carcinoma (intramuscular) in B6D2F1 (BDF1) mice. The method in brief: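 Value is the ratio of a treated-group measurement (T) to the matching vehicle-control measurement (C), using either survival or tumour size in mice bearing transplanted tumours.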

Where [1] appears, read: T/C endpoint: median survival time, dose: 16.0 mg/kg/injection, schedule: Q08DX002 (ip), vehicle: Klucel (hydroxypropylcellulose) (HPC), higher T/C = longer survival.
Setting [2] is: T/C endpoint: median survival time, dose: 64.0 mg/kg/injection, schedule: Q01DX009 (ip), vehicle: Klucel (hydroxypropylcellulose) (HPC), higher T/C = longer survival.

The list does not hold the whole screen: it gathers tests that were run many times, whatever their T/C, doses with no T/C, and many T/C values between a quarter and a half above the control. Further doses and runs are listed elsewhere. T/C: endpoint of the treated group in % of that of the vehicle group. Some entries give survivors of the animals treated and no T/C: the source files T/C as zero there, which appears to mark a toxic dose or a test without result, not a measured value. Some survivor counts are full or nearly so, which does not show that the dose was tolerated: the source hardly ever lists a survival T/C far under the control, and the zero likely stands for such cases as well. Counts of survivors are from the toxicity check (mostly the fifth day) where no day follows; animals may have died later. Schedules are NCI's codes, read here as Q, the interval in days (D) or hours (H), X, the number of doses. Some entries were tested several times; the results are listed from low to high. Where survival is the endpoint, the PubChem record calls one and a half times the control and up active, and a quarter to a half above the control has no call in these data; cut-offs in other NCI protocols can differ. Some T/C values are followed by the survivors on the day toxicity was checked, most often the fifth; where none is given, no animal had died by that day.

With `O=c1ccc2nc3ccccc3sc-2c1`, the survivor count (T/C endpoint: median survival time, dose: 12.5 mg/kg/injection, schedule: Q01DX011 (ip), vehicle: saline with Tween-80, higher T/C = longer survival) is listed as 8 of 8; the survivor count (T/C endpoint: median survival time, dose: 50.0 mg/kg/injection, schedule: Q01DX011 (ip), vehicle: saline with Tween-80, higher T/C = longer survival) is on record as 8 of 8; the survivor count (T/C endpoint: median survival time, dose: 100.0 mg/kg/injection, schedule: Q01DX011 (ip), vehicle: saline with Tween-80, higher T/C = longer survival) is 7 of 8.
On to `CCc1nc(N)nc(N)c1-c1ccc(Cl)cc1`, for which the survivor count was 5 of 8 (T/C endpoint: mean tumor weight, dose: 32.0 mg/kg/injection, schedule: Q06HX004 (ip), vehicle: Klucel (hydroxypropylcellulose) (HPC), higher T/C = larger tumour); 5 of 8 (T/C endpoint: mean tumor weight, dose: 32.0 mg/kg/injection, schedule: Q06HX012 (ip), vehicle: Klucel (hydroxypropylcellulose) (HPC), higher T/C = larger tumour); 5 of 8 (T/C endpoint: mean tumor weight, dose: 64.0 mg/kg/injection, schedule: Q01DX009 (ip), vehicle: Klucel (hydroxypropylcellulose) (HPC), higher T/C = larger tumour); 3 of 8 (T/C endpoint: mean tumor weight, dose: 100.0 mg/kg/injection, schedule: Q01DX011 (ip), vehicle: steroid suspending solution, higher T/C = larger tumour); 4 of 8 (T/C endpoint: mean tumor weight, dose: 128.0 mg/kg/injection, schedule: Q08DX002 (ip), vehicle: Klucel (hydroxypropylcellulose) (HPC), higher T/C = larger tumour); 8 of 8 (T/C endpoint: median survival time, dose: 12.5 mg/kg/injection, schedule: Q01DX011 (ip), vehicle: steroid suspending solution, higher T/C = longer survival). Besides, the survivor count is 8 of 8 under setting [1]; 6 of 8 (T/C endpoint: median survival time, dose: 25.0 mg/kg/injection, schedule: Q01DX011 (ip), vehicle: steroid suspending solution, higher T/C = longer survival); 7 of 8 (T/C endpoint: median survival time, dose: 32.0 mg/kg/injection, schedule: Q01DX009 (ip), vehicle: Klucel (hydroxypropylcellulose) (HPC), higher T/C = longer survival); 5 of 8 (T/C endpoint: median survival time, dose: 32.0 mg/kg/injection, schedule: Q06HX004 (ip), vehicle: Klucel (hydroxypropylcellulose) (HPC), higher T/C = longer survival); 5 of 8 (T/C endpoint: median survival time, dose: 32.0 mg/kg/injection, schedule: Q06HX012 (ip), vehicle: Klucel (hydroxypropylcellulose) (HPC), higher T/C = longer survival); 3 of 8 and 6 of 8 (T/C endpoint: median survival time, dose: 50.0 mg/kg/injection, schedule: Q01DX011 (ip), vehicle: steroid suspending solution, higher T/C = longer survival). The survivor count is, setting by setting: under setting [2], 5 of 8; (T/C endpoint: median survival time, dose: 64.0 mg/kg/injection, schedule: Q01DX009 (oral), vehicle: Klucel (hydroxypropylcellulose) (HPC), higher T/C = longer survival) 0 of 8; (T/C endpoint: median survival time, dose: 64.0 mg/kg/injection, schedule: Q08DX002 (ip), vehicle: Klucel (hydroxypropylcellulose) (HPC), higher T/C = longer survival) 6 of 8; (T/C endpoint: median survival time, dose: 100.0 mg/kg/injection, schedule: Q01DX011 (ip), vehicle: steroid suspending solution, higher T/C = longer survival) 1 of 8 and 3 of 8; (T/C endpoint: median survival time, dose: 128.0 mg/kg/injection, schedule: Q01DX009 (ip), vehicle: Klucel (hydroxypropylcellulose) (HPC), higher T/C = longer survival) 0 of 8; (T/C endpoint: median survival time, dose: 128.0 mg/kg/injection, schedule: Q08DX002 (ip), vehicle: Klucel (hydroxypropylcellulose) (HPC), higher T/C = longer survival) 4 of 8. Also, the T/C (T/C endpoint: median survival time, dose: 16.0 mg/kg/injection, schedule: Q01DX001 (sc), vehicle: Klucel (hydroxypropylcellulose) (HPC), higher T/C = longer survival) is 130 % of control; the T/C under setting [1] was 126 % of control; the T/C (T/C endpoint: median survival time, dose: 32.0 mg/kg/injection, schedule: Q01DX001 (sc), vehicle: Klucel (hydroxypropylcellulose) (HPC), higher T/C = longer survival) was 126 % of control; the T/C (T/C endpoint: median survival time, dose: 32.0 mg/kg/injection, schedule: Q04DX003 (ip), vehicle: Klucel (hydroxypropylcellulose) (HPC), higher T/C = longer survival) is 135 % of control; the T/C (T/C endpoint: median survival time, dose: 32.0 mg/kg/injection, schedule: Q06HX008 (ip), vehicle: Klucel (hydroxypropylcellulose) (HPC), higher T/C = longer survival) is 138 % of control; the T/C under setting [2] was 133 % of control [6 of 8 alive].
For `N=C(N)SCc1c2ccccc2c(CSC(=N)N)c2ccccc12`, the survivor count is reported as 4 of 8 (T/C endpoint: mean tumor weight, dose: 100.0 mg/kg/injection, schedule: Q01DX011 (ip), vehicle: saline, higher T/C = larger tumour); 8 of 8 (T/C endpoint: median survival time, dose: 50.0 mg/kg/injection, schedule: Q01DX011 (ip), vehicle: saline, higher T/C = longer survival); 4 of 8 (T/C endpoint: median survival time, dose: 100.0 mg/kg/injection, schedule: Q01DX011 (ip), vehicle: saline, higher T/C = longer survival); 0 of 8 (T/C endpoint: median survival time, dose: 200.0 mg/kg/injection, schedule: Q01DX011 (ip), vehicle: saline, higher T/C = longer survival).
As to `C[C@@H]1O[C@@H](O[C@H]2CC[C@]3(C=O)[C@H]4CC[C@]5(C)[C@@H](c6ccc(=O)oc6)CC[C@]5(O)[C@@H]4CC[C@]3(O)C2)[C@H](O)[C@H](O)[C@H]1O[C@@H]1O[C@H](CO)[C@@H](O)[C@H](O)[C@H]1O`, the survivor count runs as follows: (T/C endpoint: mean tumor weight (est.), dose: 2.5 mg/kg/injection, schedule: Q01DX011 (ip), vehicle: saline, higher T/C = larger tumour) 5 of 8; (T/C endpoint: median survival time, dose: 2.5 mg/kg/injection, schedule: Q01DX011 (ip), vehicle: saline, higher T/C = longer survival) 5 of 8; (T/C endpoint: median survival time, dose: 5.0 mg/kg/injection, schedule: Q01DX011 (ip), vehicle: saline, higher T/C = longer survival) 0 of 8.
With `NC(Cc1ccc(N(CCCl)CCCl)cc1)C(=O)O` (configuration not stated), the survivor count is, setting by setting: (T/C endpoint: median survival time, dose: 4.0 mg/kg/injection, schedule: Q01DX011 (ip), vehicle: Klucel (hydroxypropylcellulose) (HPC), higher T/C = longer survival) 6 of 8; (T/C endpoint: median survival time, dose: 8.0 mg/kg/injection, schedule: Q01DX011 (ip), vehicle: Klucel (hydroxypropylcellulose) (HPC), higher T/C = longer survival) 2 of 8; (T/C endpoint: median survival time, dose: 16.0 mg/kg/injection, schedule: Q01DX011 (ip), vehicle: Klucel (hydroxypropylcellulose) (HPC), higher T/C = longer survival) 0 of 8.

(Values after PubChem BioAssay AID272 (DTP/NCI, 2004).)
